Test results: PMC3182920

Key:
Assay in all cases: ELISA; N1V-MBP proteins immobilised on a 96 well plate (10 µg/ml in PBS, overnight at 4°C); purified gD serially diluted in PBS-T milk; bound gD detected with polyclonal rabbit serum R8; both purified
N1V-MBP T66Q (human) = target: T1, N1V-MBP T66Q (human) (UniProt Q15223)
T1 sequence: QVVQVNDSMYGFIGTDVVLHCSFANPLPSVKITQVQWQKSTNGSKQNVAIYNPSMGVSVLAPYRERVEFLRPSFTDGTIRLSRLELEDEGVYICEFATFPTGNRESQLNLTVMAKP

N1V-MBP F129W (human) = target: T2, N1V-MBP F129W (human) (UniProt Q15223)
T2 sequence: T1 sequence with Q36T, F99W

N1V-MBP S84R (human) = target: T3, N1V-MBP S84R (human) (UniProt Q15223)
T3 sequence: T1 sequence with Q36T, S54R

Measured: binding

HSV-1 glycoprotein D ectodomain truncated at residue 306 (gD306t) (herpes simplex virus type 1) (domain or fragment)
binds: all assays above

Positions count from the first letter of the chain named. No constants are given. Whether binding was seen depends on the method and setting. A result given as binding can be weak or reduced; the word gives no strength. Tags and fused reporters may be left off the sequences shown.
